Results reported in ChEMBL document CHEMBL1123329, “Aromatase inhibitors. Synthesis and evaluation of mammary tumor inhibiting activity of 3-alkylated 3-(4-aminophenyl)piperidine-2,6-diones” (J Med Chem, 1986).

Target: T1, Aromatase (Homo sapiens, UniProt P11511)
T1 sequence (P11511 whole entry): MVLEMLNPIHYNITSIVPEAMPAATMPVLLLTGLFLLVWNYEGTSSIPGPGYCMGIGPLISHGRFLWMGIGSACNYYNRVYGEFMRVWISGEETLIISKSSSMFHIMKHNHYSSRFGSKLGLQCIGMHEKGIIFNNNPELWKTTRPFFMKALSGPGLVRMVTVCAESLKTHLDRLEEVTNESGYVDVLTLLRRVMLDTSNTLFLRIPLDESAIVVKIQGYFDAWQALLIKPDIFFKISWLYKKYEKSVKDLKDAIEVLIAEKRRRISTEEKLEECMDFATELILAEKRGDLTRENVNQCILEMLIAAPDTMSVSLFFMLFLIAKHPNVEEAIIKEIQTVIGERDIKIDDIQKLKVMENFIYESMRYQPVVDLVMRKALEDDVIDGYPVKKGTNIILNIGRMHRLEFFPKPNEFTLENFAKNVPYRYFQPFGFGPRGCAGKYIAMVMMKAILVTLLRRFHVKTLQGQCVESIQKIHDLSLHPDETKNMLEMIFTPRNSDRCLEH

## Nc1ccc(C2CCC(=O)NC2=O)cc1 (stereo unspecified)
  IC50: > 300 µM
